Source: article PMC6599211, “Structural basis of TFIIH activation for nucleotide excision repair” (Nature Communications, 2019)
These are yes or no findings as the source states them, for the method shown. Some entries that bind do so weakly or less than the wild type.

The chains behind the UniProt entries cited, without tags or fusion partners.
UniProt P19447: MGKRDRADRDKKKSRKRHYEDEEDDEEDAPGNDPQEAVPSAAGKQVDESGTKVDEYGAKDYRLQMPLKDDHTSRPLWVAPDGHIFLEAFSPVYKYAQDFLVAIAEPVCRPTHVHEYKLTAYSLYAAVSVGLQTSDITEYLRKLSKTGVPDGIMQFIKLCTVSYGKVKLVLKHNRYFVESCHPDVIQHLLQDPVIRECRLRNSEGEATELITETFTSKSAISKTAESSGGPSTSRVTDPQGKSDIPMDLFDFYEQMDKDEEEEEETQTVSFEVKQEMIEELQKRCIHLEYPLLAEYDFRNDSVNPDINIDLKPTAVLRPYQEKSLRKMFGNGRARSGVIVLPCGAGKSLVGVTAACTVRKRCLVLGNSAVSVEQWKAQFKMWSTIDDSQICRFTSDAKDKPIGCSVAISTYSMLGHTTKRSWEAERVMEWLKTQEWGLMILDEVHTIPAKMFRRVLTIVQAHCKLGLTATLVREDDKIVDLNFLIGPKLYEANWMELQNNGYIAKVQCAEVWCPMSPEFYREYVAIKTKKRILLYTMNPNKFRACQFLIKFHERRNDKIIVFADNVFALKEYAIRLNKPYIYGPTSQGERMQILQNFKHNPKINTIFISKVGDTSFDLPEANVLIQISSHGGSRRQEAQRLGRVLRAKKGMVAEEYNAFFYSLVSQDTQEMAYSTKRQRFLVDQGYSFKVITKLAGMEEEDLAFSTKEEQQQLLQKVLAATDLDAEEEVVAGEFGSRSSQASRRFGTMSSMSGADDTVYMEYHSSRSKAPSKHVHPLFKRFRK
UniProt Q6ZYL4: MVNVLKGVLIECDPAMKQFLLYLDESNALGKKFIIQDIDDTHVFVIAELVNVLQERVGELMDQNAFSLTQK

T1: XPD (human) (UniProt P18074)
T1 sequence: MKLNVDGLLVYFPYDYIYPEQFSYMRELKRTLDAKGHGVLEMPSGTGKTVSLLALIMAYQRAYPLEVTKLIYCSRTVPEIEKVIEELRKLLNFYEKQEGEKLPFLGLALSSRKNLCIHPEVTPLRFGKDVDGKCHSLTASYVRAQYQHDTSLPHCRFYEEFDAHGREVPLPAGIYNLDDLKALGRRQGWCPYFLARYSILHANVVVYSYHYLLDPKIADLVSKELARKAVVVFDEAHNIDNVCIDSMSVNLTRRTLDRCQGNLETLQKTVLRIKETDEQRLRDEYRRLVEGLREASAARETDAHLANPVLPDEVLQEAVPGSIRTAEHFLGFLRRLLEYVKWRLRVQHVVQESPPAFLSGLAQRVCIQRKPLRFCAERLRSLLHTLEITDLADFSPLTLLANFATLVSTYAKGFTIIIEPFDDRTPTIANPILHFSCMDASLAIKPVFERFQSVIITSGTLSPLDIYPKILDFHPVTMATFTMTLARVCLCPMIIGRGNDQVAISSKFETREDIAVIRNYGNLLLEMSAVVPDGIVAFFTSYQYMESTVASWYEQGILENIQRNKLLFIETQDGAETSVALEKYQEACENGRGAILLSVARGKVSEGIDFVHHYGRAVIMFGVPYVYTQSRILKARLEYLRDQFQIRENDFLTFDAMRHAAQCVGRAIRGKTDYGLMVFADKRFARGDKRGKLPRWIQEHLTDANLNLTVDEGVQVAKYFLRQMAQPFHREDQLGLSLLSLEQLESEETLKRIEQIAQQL

T2: p52 (human) (UniProt Q92759)
T2 sequence: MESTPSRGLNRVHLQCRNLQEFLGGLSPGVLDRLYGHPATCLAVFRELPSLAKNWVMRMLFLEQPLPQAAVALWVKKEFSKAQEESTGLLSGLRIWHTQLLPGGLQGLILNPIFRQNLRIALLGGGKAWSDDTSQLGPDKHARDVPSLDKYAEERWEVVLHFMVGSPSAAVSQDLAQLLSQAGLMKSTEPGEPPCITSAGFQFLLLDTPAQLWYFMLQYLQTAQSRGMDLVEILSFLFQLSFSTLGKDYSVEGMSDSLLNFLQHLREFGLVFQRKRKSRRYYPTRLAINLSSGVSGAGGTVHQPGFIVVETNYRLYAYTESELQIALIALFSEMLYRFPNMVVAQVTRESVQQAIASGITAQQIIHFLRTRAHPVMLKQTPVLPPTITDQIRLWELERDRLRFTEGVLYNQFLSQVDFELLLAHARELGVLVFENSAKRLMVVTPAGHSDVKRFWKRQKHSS

B1: XPG (natural protein, human, UniProt P28715 1-1186, looked up)
chain: MGVQGLWKLLECSGRQVSPEALEGKILAVDISIWLNQALKGVRDRHGNSIENPHLLTLFHRLCKLLFFRIRPIFVFDGDAPLLKKQTLVKRRQRKDLASSDSRKTTEKLLKTFLKRQAIKTAFRSKRDEALPSLTQVRRENDLYVLPPLQEEEKHSSEEEDEKEWQERMNQKQALQEEFFHNPQAIDIESEDFSSLPPEVKHEILTDMKEFTKRRRTLFEAMPEESDDFSQYQLKGLLKKNYLNQHIEHVQKEMNQQHSGHIRRQYEDEGGFLKEVESRRVVSEDTSHYILIKGIQAKTVAEVDSESLPSSSKMHGMSFDVKSSPCEKLKTEKEPDATPPSPRTLLAMQAALLGSSSEEELESENRRQARGRNAPAAVDEGSISPRTLSAIKRALDDDEDVKVCAGDDVQTGGPGAEEMRINSSTENSDEGLKVRDGKGIPFTATLASSSVNSAEEHVASTNEGREPTDSVPKEQMSLVHVGTEAFPISDESMIKDRKDRLPLESAVVRHSDAPGLPNGRELTPASPTCTNSVSKNETHAEVLEQQNELCPYESKFDSSLLSSDDETKCKPNSASEVIGPVSLQETSSIVSVPSEAVDNVENVVSFNAKEHENFLETIQEQQTTESAGQDLISIPKAVEPMEIDSEESESDGSFIEVQSVISDEELQAEFPETSKPPSEQGEEELVGTREGEAPAESESLLRDNSERDDVDGEPQEAEKDAEDSLHEWQDINLEELETLESNLLAQQNSLKAQKQQQERIAATVTGQMFLESQELLRLFGIPYIQAPMEAEAQCAILDLTDQTSGTITDDSDIWLFGARHVYRNFFNKNKFVEYYQYVDFHNQLGLDRNKLINLAYLLGSDYTEGIPTVGCVTAMEILNEFPGHGLEPLLKFSEWWHEAQKNPKIRPNPHDTKVKKKLRTLQLTPGFPNPAVAEAYLKPVVDDSKGSFLWGKPDLDKIREFCQRYFGWNRTKTDESLFPVLKQLDAQQTQLRIDSFFRLAQQEKEDAKRIKSQRLNRAVTCMLRKEKEAAASEIEAVSVAMEKEFELLDKAKGKTQKRGITNTLEESSSLKRKRLSDSKGKNTCGGFLGETCLSESSDGSSSEDAESSSLMNVQRRTAAKEPKTSASDSQNSVKEAPVKNGGATTSSSSDSDDDGGKEKMVLVTARSVFGKKRRKLRRARGRKRKT
B2: p52 (protein, UniProt Q92759 1-462)
chain: T2 sequence

Key:
[1] = target: T1, XPD (human); assay: co-purification; subunits co-expressed in Hi5 cells; HisTrap, amylose resin (MBP on XPD), TEV cleavage, DEAE/heparin, Superose 6; 400 mM KCl, pH 7.0
[2] = target: XPB (human) (UniProt P19447); assay: cross-linking; core TFIIH, XPA, XPG and bifurcated DNA scaffold mixed 1:2:2:1.5, 150 mM KCl, pH 7.5, purified on Superose 6 increase; 2 mM BS3, 30 min, 30 °C; cross-linked peptides identified by mass spectrometry (pLink, FDR 1%); both purified
[3] = target: T2, p52 (human); assay: as above

| Molecule | binding [1] | binding [2] | binding [3] |
| --- | --- | --- | --- |
| TTDA/p8 (from UniProt Q6ZYL4 1-71) | binds |  |  |
| B1 |  | binds | binds |
| B2 | binds |  |  |
